Data as given in PubChem BioAssay AID504764 (Drosophila RNAi Screening Center, 2011).
In all, the deposit lists about 22,000 reagents; this is a random part of those that have a named target and a result. In the full data, 403 (1.9%) are marked active. 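Unnormalised raw counts per well; ratio z-scores behind the hit calls and whether each hit raises or lowers signal are not deposited.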 Reagents against one gene are numbered here. A plus sign joins genes that one reagent is predicted to hit. Not stated in the record: the amount of reagent.

Aim: 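Genes whose knock-down alters Notch-dependent transcription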 (primary screen)
System: Drosophila Kc167 cells
Knock-down reagent: long dsRNA against Drosophila genes
Time to read-out: about 5 days (4 days dsRNA, then 24 h after transfection)
Conditions: transfection of constitutively active membrane-tethered Notch lacking the extracellular domain, read 24 h later
Read-out: 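Firefly luciferase from an E(spl)m3 reporter with active Notch, plus control-promoter and uninduced reporter wells for normalisation; unnormalised counts, duplicate wells a and b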
Reading the numbers: induced reporter light, run 1, well a and induced reporter light, run 1, well b: higher = more light from the Notch target reporter with active Notch; control promoter light, run 1, well a and control promoter light, run 1, well b: higher = more light from the viral control promoter (cell number, transfection, viability); uninduced reporter light, run 1, well a: higher = more light from the Notch target reporter without active Notch
Hit rule: 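Hit if the duplicate-averaged log2 ratio of induced to control-promoter light gives a plate-wise z beyond ±2, or induced to uninduced beyond ±1.8; weak-control or discordant-duplicate wells dropped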
Meaning of the calls: active = modifier hit (raised or lowered Notch signal); inactive = not a hit

| gene | reagent | induced reporter light, run 1, well a | induced reporter light, run 1, well b | control promoter light, run 1, well a | control promoter light, run 1, well b | uninduced reporter light, run 1, well a | Outcome |
| --- | --- | --- | --- | --- | --- | --- | --- |
| CG13614 | 1 | 1.93e5 | 1.72e5 | 2.08e5 | 2.05e5 | 15250 | inactive |
| Tep1 | 1 | 94570 | 1.24e5 | 1.51e5 | 1.52e5 | 8835 | inactive |
| IFT52 | 1 | 1.23e5 | 97875 | 1.19e5 | 1.35e5 | 7120 | inactive |
| Obp19b | 1 | 82680 | 1.00e5 | 1.18e5 | 1.75e5 | 10425 | inactive |
| NimB5 | 1 | 1.26e5 | 1.32e5 | 1.67e5 | 1.81e5 | 11425 | inactive |
| CG34200 | 1 | 82095 | 97450 | 1.31e5 | 1.18e5 | 4190 | inactive |
| squ | 1 | 71915 | 53890 | 64925 | 56550 | 5580 | inactive |
| Mst84Db | 1 | 70890 | 82760 | 88430 | 68550 | 3795 | inactive |
| Mst84Db | 2 | 83520 | 83495 | 81830 | 71660 | 4815 | inactive |
| CG6282 | 1 | 97560 | 94200 | 71570 | 31025 | 9430 | inactive |
| CG12075 | 1 | 1.88e5 | 1.70e5 | 1.70e5 | 1.67e5 | 13355 | inactive |
| insc | 1 | 43895 | 45865 | 46455 | 37660 | 2510 | inactive |
| VhaAC45RP | 1 | 1.85e5 | 1.87e5 | 2.62e5 | 2.14e5 | 10445 | inactive |
| Kaz | 1 | 1.56e5 | 1.62e5 | 1.93e5 | 1.69e5 | 11725 | inactive |
| subdued | 1 | 1.62e5 | 1.73e5 | 2.05e5 | 2.09e5 | 15860 | inactive |
| CG13326 | 1 | 80745 | 85850 | 98375 | 89545 | 6360 | inactive |
| Gr64d + Gr64e | 1 | 1.34e5 | 1.26e5 | 1.64e5 | 1.48e5 | 10215 | active |
| fend | 1 | 97970 | 76630 | 87300 | 79785 | 6210 | inactive |
| fend | 2 | 43230 | 57285 | 70095 | 76480 | 3780 | inactive |
| CG13901 | 1 | 1.04e5 | 1.62e5 | 2.15e5 | 1.77e5 | 5882 | inactive |
| CG33722 + CG18749 | 1 | 1.76e5 | 1.32e5 | 1.81e5 | 1.88e5 | 12695 | inactive |
| CG33722 + CG18749 | 2 | 95695 | 95075 | 82460 | 47745 | 5260 | inactive |
| CG34221 | 1 | 2.07e5 | 2.03e5 | 3.07e5 | 2.72e5 | 20910 | inactive |
| lncRNA:CR42646 | 1 | 91555 | 96100 | 90000 | 93380 | 4550 | inactive |
| CG13699 | 1 | 1.05e5 | 1.04e5 | 1.83e5 | 1.54e5 | 6732 | inactive |
| CG18294 | 1 | 1.10e5 | 1.22e5 | 1.17e5 | 1.06e5 | 9850 | inactive |
| BEAF-32 + CG42254 (retired record) | 1 | 1.87e5 | 1.97e5 | 2.75e5 | 2.68e5 | 16200 | inactive |
| CG32236 | 1 | 1.89e5 | 1.48e5 | 1.76e5 | 1.73e5 | 13080 | inactive |
| CG18367 | 1 | 1.23e5 | 97195 | 85895 | 1.03e5 | 6940 | inactive |

Next part, starting with the last 3 of the part before.
| gene | reagent | induced reporter light, run 1, well a | induced reporter light, run 1, well b | control promoter light, run 1, well a | control promoter light, run 1, well b | uninduced reporter light, run 1, well a | Outcome |
| --- | --- | --- | --- | --- | --- | --- | --- |
| BEAF-32 + CG42254 (retired record) | 1 | 1.87e5 | 1.97e5 | 2.75e5 | 2.68e5 | 16200 | inactive |
| CG32236 | 1 | 1.89e5 | 1.48e5 | 1.76e5 | 1.73e5 | 13080 | inactive |
| CG18367 | 1 | 1.23e5 | 97195 | 85895 | 1.03e5 | 6940 | inactive |
| osy | 1 | 1.65e5 | 2.15e5 | 2.39e5 | 2.39e5 | 13855 | inactive |
| osy | 2 | 1.70e5 | 1.46e5 | 1.90e5 | 1.66e5 | 10890 | inactive |
| osy | 3 | 1.77e5 | 2.26e5 | 2.58e5 | 2.70e5 | 14450 | inactive |
| CG14511 | 1 | 1.01e5 | 70810 | 1.32e5 | 1.18e5 | 8775 | inactive |
| CG10357 | 1 | 1.17e5 | 93705 | 1.47e5 | 1.65e5 | 5935 | inactive |
| ND1 (retired record) | 1 | 99695 | 1.12e5 | 1.02e5 | 1.07e5 | 9685 | inactive |
| RfC4 | 1 | 1.24e5 | 1.01e5 | 87295 | 25480 | 10285 | inactive |
| GluClalpha | 1 | 2.43e5 | 2.15e5 | 2.26e5 | 2.18e5 | 14205 | inactive |
| Antp | 1 | 15910 | 18260 | 12470 | 10885 | 4845 | inactive |
| Inx6 | 1 | 1.53e5 | 1.22e5 | 1.48e5 | 1.88e5 | 13345 | inactive |
| CG33791 + CG12105 + CG18170 | 1 | 95195 | 1.07e5 | 1.76e5 | 2.16e5 | 8665 | inactive |
| CtBP | 1 | 75575 | 60530 | 64730 | 60740 | 5625 | inactive |
| tal-1A + tal-2A + tal-AA + 1 more | 1 | 1.27e5 | 1.16e5 | 1.22e5 | 1.39e5 | 8850 | inactive |
| Sgt | 1 | 1.06e5 | 1.06e5 | 1.01e5 | 94395 | 8400 | inactive |
| CG13545 | 1 | 2.04e5 | 1.99e5 | 1.44e5 | 1.69e5 | 14275 | inactive |
| Su(dx) | 1 | 2.06e5 | 1.78e5 | 1.13e5 | 1.14e5 | 20545 | active |
| CG9483 | 1 | 2.35e5 | 2.06e5 | 1.98e5 | 2.35e5 | 16585 | inactive |
| RpS25 | 1 | 91265 | 1.25e5 | 83450 | 65440 | 4950 | inactive |
| Lnk | 1 | 1.45e5 | 1.61e5 | 2.23e5 | 2.00e5 | 12970 | inactive |
| Cyp4e3 | 1 | 1.36e5 | 1.53e5 | 77545 | 99295 | 16690 | inactive |
| CG15506 | 1 | 1.27e5 | 1.26e5 | 1.91e5 | 1.47e5 | 13305 | inactive |
